{
  "source": "PubChem BioAssay AID977628",
  "about": "(Broad Institute, 2014)",
  "note": "Hit rate of the full screen: of about 1,900 compounds, fewer than 10 were called active. Inconclusive results, whose numbers are uncertain, are shown with a selection of clear calls.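 How the source made its calls: active means compound lowering the normal-ribosome reporter at least twice as much as the humanized-ribosome reporter, growth loss under a set limit; inconclusive means no clear call, values can overlap the other calls; inactive means the rest.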",
  "data": [
    {"experiment": "growth of wild-type and h24-humanized E. coli strains – h24 mutant RFP vs wild-type GFP, cherry-pick, dose response (AID 977628)", "details": "E. coli WT GFP strain growth, fluorescence, 24 h; at 50 µM (top of the series) unless noted", "values": [
      {"smiles": "Cc1ccc(-c2c(=O)n(O)c3ccccc3[n+]2[O-])cc1", "activity change, negative = inhibition": "inconclusive: -0.06"},
      {"smiles": "COc1cccc(-c2ccc(NC(=O)C3CCCN(Cc4cnn(C(C)C)c4)C3)cc2)c1", "note": "(configuration not stated)", "activity change, negative = inhibition": "inactive: -0.471"},
      {"smiles": "Cc1onc(-c2c(F)cccc2Cl)c1C(=O)c1ccccc1O", "activity change, negative = inhibition": "inconclusive: -36.5"},
      {"smiles": "CN1N=C2c3ccccc3CCC2C1c1ccc(F)cc1", "note": "(configuration not stated)", "activity change, negative = inhibition": "inconclusive: -7.43"},
      {"smiles": "CCn1cc(CCC(=O)NCCc2ccccc2)c2ccccc21", "activity change, negative = inhibition": "inconclusive: -9.44"},
      {"smiles": "CCCN1CCN(C(=O)c2ccc(Sc3ccc(C)cc3)c(NC(C)=O)c2)CC1", "activity change, negative = inhibition": "inactive: -3.77"},
      {"smiles": "COC(=O)c1cn(C(=O)c2ccc(OC)cc2)c2ccccc12", "activity change, negative = inhibition": "inactive: -9.2"},
      {"smiles": "CCOc1ccc2[nH]c3c(NCCN(C)C)ncnc3c2c1", "activity change, negative = inhibition": "inconclusive: 5.43"},
      {"smiles": "CN(C)CCCn1c(=O)n(Cc2ccco2)c(=O)c2c3c(sc21)CCCCC3", "activity change, negative = inhibition": "inconclusive: -12.2"},
      {"smiles": "Cc1noc2ncnc(SCc3ccc(C(F)(F)F)cc3)c12", "activity change, negative = inhibition": "inconclusive: 3.88"},
      {"smiles": "COc1ccc(-c2csc(NC(=O)c3ccccc3S(C)(=O)=O)n2)cc1", "activity change, negative = inhibition": "inconclusive: -14.5"},
      {"smiles": "C[C@@H]1CN([C@@H](C)CO)C(=O)CCCn2nncc2CO[C@H]1CN(C)C(=O)Nc1ccc(C(F)(F)F)cc1", "activity change, negative = inhibition": "inconclusive: -10.4"},
      {"smiles": "Cc1ccc(C(=O)OCC(=O)c2c[nH]c3ccccc23)cc1NC(=O)c1ccco1", "activity change, negative = inhibition": "inconclusive: -10.3"},
      {"smiles": "CNC(=O)c1cc(C(=O)c2ccc(C(F)(F)F)cc2F)c[nH]1", "activity change, negative = inhibition": "inconclusive: -9.27"},
      {"smiles": "Cc1ccc2c(c1C)OC(=O)CC2c1ccccc1", "note": "(configuration not stated)", "activity change, negative = inhibition": "inconclusive: -43.2"},
      {"smiles": "COC(=O)c1cc2c(c3c4cc(F)ccc4n(S(=O)(=O)c4cccc(C)c4)c13)C(=O)N(Cc1ccco1)C2", "activity change, negative = inhibition": "inactive: -9.79"},
      {"smiles": "Cn1cc(CN2CCCC(C(=O)Nc3cccc(-c4cc5ccccc5[nH]4)c3)C2)cn1", "note": "(configuration not stated)", "activity change, negative = inhibition": "inactive: -8.08"},
      {"smiles": "C[C@@H]1NS(=O)(=O)c2c(F)cccc2O[C@@H]1c1ccccc1", "activity change, negative = inhibition": "inconclusive: -32.6"},
      {"smiles": "CCCn1c(NCc2ccc3c(c2)OCO3)nc2ccccc21", "activity change, negative = inhibition": "inconclusive: -20.2"},
      {"smiles": "Cc1cc([N+](=O)[O-])nn1CC(=O)Nc1cc(F)ccc1F", "activity change, negative = inhibition": "inconclusive: -14"},
      {"smiles": "COc1ccc(N(CCC(=O)O)S(=O)(=O)c2ccc(C)cc2C)cc1", "activity change, negative = inhibition": "inactive: -9.34"},
      {"smiles": "Cc1ccc(NC(=O)COC(=O)CCNS(=O)(=O)c2c(Cl)cccc2Cl)cc1", "activity change, negative = inhibition": "inactive: -8.09"},
      {"smiles": "COc1ccc2c(CC(=O)NCc3ccc4c(c3)OCO4)coc2c1", "activity change, negative = inhibition": "inconclusive: -12.2"},
      {"smiles": "Cc1cc(C(C)(C)C)oc1C(=O)N(CC(=O)NC1CCCC1)c1c(C)cccc1C", "activity change, negative = inhibition": "inactive: -15.1"},
      {"smiles": "CCOC(=O)C(C)(C)n1nnc(-c2ccc([N+](=O)[O-])cc2)n1", "activity change, negative = inhibition": "inconclusive: -23.1"},
      {"smiles": "COc1ccc(CN(C)C[C@H]2Oc3ccc(NS(=O)(=O)c4ccc(Cl)cc4)cc3CC(=O)N([C@@H](C)CO)C[C@H]2C)cc1", "activity change, negative = inhibition": "inconclusive: -7.15"},
      {"smiles": "Cc1cccc(NS(=O)(=O)c2cc3c(cc2C)NC(=O)CO3)c1", "activity change, negative = inhibition": "inactive: -9.13"},
      {"smiles": "Cc1nn(CC(=O)OCCOc2ccc(Br)cc2)c(C)c1[N+](=O)[O-]", "activity change, negative = inhibition": "inconclusive: -12.2"},
      {"smiles": "COc1ccc(NC(=O)Nc2cccc3c2O[C@@H](CN(C)S(=O)(=O)c2ccc(Cl)cc2)[C@H](C)CN([C@H](C)CO)C3=O)cc1", "activity change, negative = inhibition": "inconclusive: -8.55"},
      {"smiles": "Cc1ccccc1SCC(=O)OCC(=O)Nc1sccc1C(N)=O", "activity change, negative = inhibition": "inactive: -0.104"},
      {"smiles": "COc1cc2ccccc2cc1C(=O)NCC(c1cccs1)N(C)C", "note": "(configuration not stated)", "activity change, negative = inhibition": "inactive: -3.86"},
      {"smiles": "CCOc1ccc2nc(SCC(=O)Nc3nonc3C)[nH]c2c1", "activity change, negative = inhibition": "inactive: -9.98"},
      {"smiles": "Cc1cccc(-c2ccc([C@@H]3[C@@H](CO)N4CCCCN(S(=O)(=O)c5cccs5)C[C@H]34)cc2)c1", "activity change, negative = inhibition": "inconclusive: -76.4"},
      {"smiles": "CCC1(C(=O)OC)CCc2c(cc(OC)c3ccccc23)C1=O", "note": "(configuration not stated)", "activity change, negative = inhibition": "inactive: -11.8"},
      {"smiles": "CCOC(=O)Cc1csc(SCC(=O)Nc2cc(C)ccc2OC)n1", "activity change, negative = inhibition": "inconclusive: -16.9"},
      {"smiles": "O=C(NC1CCCC(C(F)(F)F)C1)c1ccc([N+](=O)[O-])o1", "note": "(configuration not stated)", "activity change, negative = inhibition": "inconclusive: -27.5"},
      {"smiles": "CCOC(=O)Cc1nnc(NC(=O)CSc2nc3ccccc3[nH]2)s1", "activity change, negative = inhibition": "inactive: -15.6"},
      {"smiles": "Cc1cc(SCC(=O)c2cccs2)n2nc(C)c(-c3ccc(Cl)cc3)c2n1", "activity change, negative = inhibition": "inactive: -1.94"},
      {"smiles": "COc1ccc(OC)c(S(=O)(=O)Nc2cccc3ccc(O)cc23)c1", "activity change, negative = inhibition": "inactive: -13.9"},
      {"smiles": "COc1ccc(OC)c(NC(=O)CN(C)CC(=O)Nc2ccccc2Br)c1", "activity change, negative = inhibition": "inconclusive: -15.2"},
      {"smiles": "CCc1ccc(NC(=O)CCc2c(C)nn(-c3ccc(N4CCCCC4)nn3)c2C)cc1", "activity change, negative = inhibition": "inconclusive: -14.8"},
      {"smiles": "O=C(O)CCN(Cc1ccccc1)S(=O)(=O)c1ccc(Cl)cc1F", "activity change, negative = inhibition": "inconclusive: -20.1"},
      {"smiles": "O=C(c1cc(C(=O)N2CCOCC2)c2nc3ccccc3n2c1)c1cc(Cl)cc(Cl)c1O", "activity change, negative = inhibition": "inconclusive: -21.2"},
      {"smiles": "CCOc1ccccc1NC(=O)c1ccc2ccccc2c1", "activity change, negative = inhibition": "inconclusive: -36.3"},
      {"smiles": "CN(C)CCNc1ncnc2c1sc1nc(N3CCCC3)c3c(c12)CC(C)(C)OC3", "activity change, negative = inhibition": "inactive: -5.32"},
      {"smiles": "Cc1ccc2oc(=O)n(CCCOc3ccccc3C)c2c1", "activity change, negative = inhibition": "inconclusive: -10.9"},
      {"smiles": "CCCCOc1ccc(-c2nnn(CCC(=O)N3CCOCC3)n2)cc1", "activity change, negative = inhibition": "inactive: -8.51"}
    ]}
  ]
}
